PubChem BioAssay AID330 (DTP/NCI, 2004)
The list does not hold the whole screen: it gathers tests that were run many times, whatever their T/C, doses with no T/C, and many T/C values between a quarter and a half above the control. Further doses and runs are listed elsewhere. T/C gives the treated animals as a percentage of the vehicle group. Some doses have a count of surviving animals in place of a T/C: the source files T/C as zero there, which appears to mark a toxic dose or a test without result, not a measured value. Some survivor counts are full or nearly so, which does not show that the dose was tolerated: survival well below the control is almost never listed, so the zero probably covers shortened survival too. Survivors were counted at the toxicity check, usually on the fifth day, unless a day is given; later deaths do not show. Schedule codes are those of the source, taken here to give the interval after Q, in days (D) or hours (H), and the number of doses after X. Some entries were tested several times; their values stand side by side, smallest first. For survival time, this PubChem deposit counts one and a half times the control or more as active, and values a quarter to a half above the control carry no call in these data; other NCI protocols may use other cut-offs. Some T/C values are followed by the survivors on the day toxicity was checked, most often the fifth; where none is given, no animal had died by that day.

Tested on: P388 leukemia ip, CD2F1 mice, survival T/C
Assay: NCI In Vivo Anticancer Drug Screen. Data for tumor model P388 Leukemia (intraperitoneal) in CD2F1 (CDF1) mice
Details: T/C endpoint: median survival time, higher T/C = longer survival
[1] = dose: 100.0 mg/kg/injection, schedule: Q01DX009 (ip), vehicle: saline with Tween-80
[2] = dose: 200.0 mg/kg/injection, schedule: Q01DX009 (ip), vehicle: saline with Tween-80
[3] = dose: 25.0 mg/kg/injection, schedule: Q01DX009 (ip), vehicle: saline with Tween-80
[4] = dose: 50.0 mg/kg/injection, schedule: Q01DX009 (ip), vehicle: saline with Tween-80

`O=[N+]([O-])c1ccc(S/N=C\c2ccccc2)c([N+](=O)[O-])c1` was tested, and the survivor count [1] was 6 of 6 and the survivor count [2] was 6 of 6.
With `CC(C)(C)N1CC1CNC(=O)C(=O)NCC1CN1C(C)(C)C` (stereo unspecified) the T/C (dose: 1.56 mg/kg/injection, schedule: Q01DX009 (ip), vehicle: saline with Tween-80) was 137 % of control, the survivor count [3] was 5 of 6 and 6 of 6 and the survivor count [4] was 4 of 6, 5 of 6, 6 of 6. The survivor count [1] was 2 of 6.
`Cc1cc2c(cc1C)n1c(=O)n(C)c(=O)c(C#N)c1n2C` was tested, and the survivor count (dose: 30.0 mg/kg/injection, schedule: Q01DX005 (ip), vehicle: saline with Tween-80) was 6 of 6, the survivor count (dose: 60.0 mg/kg/injection, schedule: Q01DX005 (ip), vehicle: saline with Tween-80) was 6 of 6 and the survivor count (dose: 120.0 mg/kg/injection, schedule: Q01DX005 (ip), vehicle: saline with Tween-80) was 6 of 6. For the same compound, the survivor count (dose: 240.0 mg/kg/injection, schedule: Q01DX005 (ip), vehicle: saline with Tween-80) was 6 of 6.
`NC(Cc1cccs1)C(=O)Nc1nncs1` (stereo unspecified) was tested, and the T/C (dose: 200.0 mg/kg/injection, schedule: Q04DX002 (ip), vehicle: saline) was 136 % of control and the T/C (dose: 600.0 mg/kg/injection, schedule: Q04DX002 (ip), vehicle: suspension in saline) was 138 % of control.
For `COc1ccc(C/C=N/O)c(OC)c1`, the survivor count (dose: 50.0 mg/kg/injection, schedule: Q01DX009 (ip), vehicle: other) was 5 of 5 and the survivor count (dose: 200.0 mg/kg/injection, schedule: Q01DX009 (ip), vehicle: other) was 5 of 5.
`Cc1cc(Cl)c2cc3c(cc2n1)CCCC3` was tested, and the survivor count (dose: 240.0 mg/kg/injection, schedule: Q01DX005 (ip), vehicle: Klucel (hydroxypropylcellulose) (HPC)) was 0 of 6.
In the case of `COc1ccc(C[C@H](N)C(=O)NC2C(CO)OC(n3cnc4c(N(C)C)ncnc43)C2O)cc1` (stereo partly specified), the T/C (dose: 8.0 mg/kg/injection, schedule: Q03HX024 (ip), vehicle: saline) is reported as 141 % of control, the survivor count (dose: 32.0 mg/kg/injection, schedule: Q03HX024 (ip), vehicle: saline) is reported as 4 of 6 and the T/C (dose: 33.0 mg/kg/injection, schedule: Q01DX009 (ip), vehicle: saline with Tween-80, evaluated on day 30) is reported as 129 % of control. For the same compound, the T/C (dose: 33.0 mg/kg/injection, schedule: Q01DX009 (ip), vehicle: saline with Tween-80, evaluated on day 60) was 132 % of control, the T/C (dose: 50.0 mg/kg/injection, schedule: Q01DX009 (ip), vehicle: saline with Tween-80, evaluated on day 30) was 130 % of control and the T/C (dose: 50.0 mg/kg/injection, schedule: Q01DX009 (ip), vehicle: saline with Tween-80, evaluated on day 45) was 128 % of control. For the same compound, the T/C (dose: 50.0 mg/kg/injection, schedule: Q01DX009 (ip), vehicle: saline with Tween-80, evaluated on day 60) was 134 % of control, the survivor count (dose: 64.0 mg/kg/injection, schedule: Q03HX024 (ip), vehicle: saline) was 1 of 6 and the T/C (dose: 66.0 mg/kg/injection, schedule: Q01DX009 (ip), vehicle: saline sonified) was 127 % of control. For the same compound, the T/C (dose: 75.0 mg/kg/injection, schedule: Q01DX009 (ip), vehicle: saline with Tween-80, evaluated on day 30) was 145 % of control, the T/C (dose: 75.0 mg/kg/injection, schedule: Q01DX009 (ip), vehicle: saline with Tween-80, evaluated on day 45) was 137 % of control and the T/C (dose: 75.0 mg/kg/injection, schedule: Q01DX009 (ip), vehicle: saline with Tween-80, evaluated on day 60) was 138 % of control. For the same compound, the T/C (dose: 100.0 mg/kg/injection, schedule: Q01DX009 (ip), vehicle: saline sonified, evaluated on day 20) was 145 % of control, the T/C (dose: 100.0 mg/kg/injection, schedule: Q01DX009 (ip), vehicle: saline sonified, evaluated on day 30) was 131 % of control [5 of 6 alive] and the T/C (dose: 112.0 mg/kg/injection, schedule: Q01DX009 (ip), vehicle: saline with Tween-80, evaluated on day 30) was 145 % of control. The T/C (dose: 112.0 mg/kg/injection, schedule: Q01DX009 (ip), vehicle: saline with Tween-80, evaluated on day 45) was 146 % of control, the T/C (dose: 112.0 mg/kg/injection, schedule: Q01DX009 (ip), vehicle: saline with Tween-80, evaluated on day 60) was 147 % of control and the survivor count (dose: 120.0 mg/kg/injection, schedule: Q01DX009 (ip), vehicle: water) was 6 of 6. The survivor count (dose: 140.0 mg/kg/injection, schedule: Q01DX009 (ip), vehicle: water) was 6 of 6, the survivor count (dose: 160.0 mg/kg/injection, schedule: Q01DX009 (ip), vehicle: water) was 6 of 6 and the survivor count (dose: 180.0 mg/kg/injection, schedule: Q01DX009 (ip), vehicle: water) was 4 of 6. The survivor count (dose: 200.0 mg/kg/injection, schedule: Q01DX009 (ip), vehicle: saline sonified) was 3 of 6, the T/C (dose: 256.0 mg/kg/injection, schedule: Q01DX001 (ip), vehicle: saline) was 127 % of control [5 of 6 alive] and the survivor count (dose: 256.0 mg/kg/injection, schedule: Q01DX005 (ip), vehicle: saline) was 0 of 6. The survivor count (dose: 256.0 mg/kg/injection, schedule: Q01DX009 (ip), vehicle: saline) was 1 of 6, the survivor count (dose: 400.0 mg/kg/injection, schedule: Q01DX009 (ip), vehicle: saline sonified) was 0 of 6 and the survivor count (dose: 512.0 mg/kg/injection, schedule: Q01DX001 (ip), vehicle: saline) was 3 of 6. For the same compound, the survivor count (dose: 512.0 mg/kg/injection, schedule: Q04DX003 (ip), vehicle: saline) was 5 of 6 and the survivor count (dose: 1028.0 mg/kg/injection, schedule: Q01DX001 (ip), vehicle: saline) was 1 of 6.
In the case of `O=C(O)CC(=O)c1ccccc1`, the survivor count [1] is reported as 6 of 6.
For `C1CCC2(CC1)N=C1CCCCC1S2` (stereo unspecified), the survivor count (dose: 50.0 mg/kg/injection, schedule: Q01DX005 (ip), vehicle: saline + Tween-80 + alcohol) was 0 of 6, the survivor count (dose: 100.0 mg/kg/injection, schedule: Q01DX005 (ip), vehicle: saline + Tween-80 + alcohol) was 0 of 6 and the survivor count (dose: 200.0 mg/kg/injection, schedule: Q01DX005 (ip), vehicle: saline + Tween-80 + alcohol) was 0 of 6.
With `CCC[P+](C)(CCC#N)c1ccccc1` (stereo unspecified) the survivor count (dose: 25.0 mg/kg/injection, schedule: Q01DX009 (ip), vehicle: Klucel (hydroxypropylcellulose) (HPC)) was 4 of 6 and the survivor count (dose: 50.0 mg/kg/injection, schedule: Q01DX009 (ip), vehicle: Klucel (hydroxypropylcellulose) (HPC)) was 0 of 6.
With `COC1=C(N=[N+]=[N-])C(=O)c2ncccc2C1=O` the survivor count (dose: 6.25 mg/kg/injection, schedule: Q01DX009 (ip), vehicle: saline with Tween-80) was 2 of 6, the survivor count (dose: 10.0 mg/kg/injection, schedule: Q01DX009 (ip), vehicle: DMSO) was 2 of 6 and the survivor count (dose: 12.5 mg/kg/injection, schedule: Q01DX009 (ip), vehicle: saline with Tween-80) was 1 of 6. For the same compound, the survivor count [3] was 0 of 6, the survivor count [4] was 0 of 6 and the survivor count [1] was 0 of 6.
For `N=C(N)c1ccc2oc(CCc3cc4ccc(C(=N)N)cc4[nH]3)cc2c1`, the T/C (dose: 25.0 mg/kg/injection, schedule: Q04DX003 (ip), vehicle: suspension in saline) was 129 and 141 % of control, the survivor count (dose: 50.0 mg/kg/injection, schedule: Q04DX003 (ip), vehicle: suspension in saline) was 5 of 6 and the survivor count (dose: 100.0 mg/kg/injection, schedule: Q04DX003 (ip), vehicle: suspension in saline) was 0 of 6. The survivor count (dose: 200.0 mg/kg/injection, schedule: Q04DX003 (ip), vehicle: suspension in saline) was 0 of 6 and the survivor count (dose: 400.0 mg/kg/injection, schedule: Q04DX003 (ip), vehicle: suspension in saline) was 0 of 6.
In the case of `O=C1OC(Cc2ccccc2)=C(Cl)C(Cl)(Cc2ccccc2)C1Cl` (stereo unspecified), the survivor count (dose: 400.0 mg/kg/injection, schedule: Q01DX001 (ip), vehicle: Klucel (hydroxypropylcellulose) (HPC)) is reported as 4 of 6.
With `COc1cc(NCCCCCNC(C)C)c2ncc(C)c(C)c2c1` the survivor count (dose: 100.0 mg/kg/injection, schedule: Q01DX005 (ip), vehicle: saline) was 2 of 5 and the survivor count (dose: 200.0 mg/kg/injection, schedule: Q01DX005 (ip), vehicle: saline) was 0 of 5.
`Cc1cc(Nc2ccc(N(C)C)cc2)c2cc(N(C)C)ccc2n1` was tested, and the survivor count [2] was 3 of 6.
In the case of `CN(C)CCCNc1ccc(O)c2c1C(=O)c1ccccc1C2=O`, the survivor count (dose: 200.0 mg/kg/injection, schedule: Q01DX009 (ip), vehicle: water) is reported as 6 of 6.
